Measurements reported in article PMC7402621.
Read-outs that look alike come from different tables or passages of the source. No constants are given. Whether binding was seen depends on the method and setting. In cells and extracts the contact can be indirect. Here binding means that the protein was enriched with, or labelled near, the bait; the list need not be complete.

Key:
[1] = molecular target: N-terminally 3×FLAG-tagged Nsp1 of SARS-CoV-2 (SARS-CoV-2) (UniProt P0DTD1); experiment: affinity purification with mass spectrometry + cryo-EM structure
[2] = molecular target: N-terminally 3×FLAG-tagged Nsp1 of SARS-CoV-2 (SARS-CoV-2) (UniProt P0DTD1); experiment: as above; remark: listed apart in the source

Row | Molecule | binding [1] | binding [2]
1 | cell growth–regulating nucleolar protein Ly 1 antibody reactive (LYAR) (from UniProt Q9NX58 1-379) | binds | 
2 | coiled-coil domain containing short open reading frame 124 (CCDC124) (protein, UniProt Q96CT7 1-223) MPKKFQGENTKSAAARARRAEAKAAADAKKQKELEDAYWKDDDKHVMRKEQRKEEKEKRRLDQLERKKETQRLLEEEDSKLKGGKAPRVATSSKVTRAQIEDTLRRDHQLREAPDTAEKAKSHLEVPLEENVNRRVLEEGSVEARTIEDAIAVLSVAEEAADRHPERRMRAAFTAFEEAQLPRLKQENPNMRLSQLKQLLKKEWLRSPDNPMNQRAVPFNAPK |  | binds
3 | cytosolic ribosome biogenesis factor TSR1 (protein, UniProt Q2NL82 1-804) MAAHRPGPLKQQNKAHKGGRHRGRGSAQRDGKGRLALKTLSKKVRKELSRVDQRHRASQLRKQKKEAVLAEKRQLGGKDGPPHQVLVVPLHSRISLPEAMQLLQDRDTGTVHLNELGNTQNFMLLCPRLKHRWFFTSARPGDLHVVLDMAKVADTILFLLDPLEGWDSTGDYCLSCLFAQGLPTYTLAVQGISGLPLKKQIDTRKKLSKAVEKRFPHDKLLLLDTQQEAGMLLRQLANQKQQHLAFRDRRAYLFAHAVDFVPSEENNLVGTLKISGYVRGQTLNVNRLLHIVGYGDFQMKQIDAPGDPFPLNPRGIKPQKDPDMAMEICATDAVDDMEEGLKVLMKADPGRQESLQAEVIPDPMEGEQTWPTEEELSEAKDFLKESSKVVKKVPKGTSSYQAEWILDGGSQSGGEGDEYEYDDMEHEDFMEEESQDESSEEEEEYETMTIGESVHDDLYDKKVDEEAEAKMLEKYKQERLEEMFPDEVDTPRDVAARIRFQKYRGLKSFRTSPWDPKENLPQDYARIFQFQNFTNTRKSIFKEVEEKEVEGAEVGWYVTLHVSEVPVSVVECFRQGTPLIAFSLLPHEQKMSVLNMVVRRDPGNTEPVKAKEELIFHCGFRRFRASPLFSQHTAADKHKLQRFLTADMALVATVYAPITFPPASVLLFKQKSNGMHSLIATGHLMSVDPDRMVIKRVVLSGHPFKIFTKMAVVRYMFFNREDVLWFKPVELRTKWGRRGHIKEPLGTHGHMKCSFDGKLKSQDTVLMNLYKRVFPKWTYDPYVPEPVPWLKSEISSTVPQGGME |  | binds
